Test results taken from PubChem BioAssay AID493014 (National Center for Advancing Translational Sciences (NCATS), 2011).
This is one part of the list. Further columns of the screen follow, without active or inactive calls. Most of these compounds were active or inconclusive in the main read-out, so they are no random draw. Words in brackets tell the shape of the fitted curve; partial curves, single points and poor fits give uncertain potencies.

Experiment: qHTS Assay to Find Inhibitors of Chronic Active B-Cell Receptor Signaling
Details: ABC-DLBCL IkBa-CBG/CBR reporter, luminescence ratio (green luciferase fused to IkBa over red control in TMD8 lymphoma cells), 4 h
In short: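 TMD8 human ABC-DLBCL cells with doxycycline-inducible IκBα–green luciferase fusion and unfused red luciferase, in 0.5% FBS medium; compounds up to 46 uM, 4 h at 37C. Green/red luminescence ratio, filter-overlap corrected, fitted to concentration-response curves.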

[1] = measured here: CBR red luminescence, cell number
[2] = measured here: IkBa-CBG green luminescence

Which AC50 [1] does the source give for `O=C(Nc1nc(-c2ccccn2)cs1)C1COc2ccccc2O1` (stereo not given) here?
Its AC50 is 11.6 µM [falling, partial curve, poor fit].

Which AC50 [1] does the source give for `O=C(C1CCCN(S(=O)(=O)c2ccc(F)cc2)C1)N(Cc1cccs1)C1CC1` (stereo not given) here?
Its AC50 is 12.6 µM [falling, partial curve, poor fit].

For `CC1CCC(NC(=O)c2ccc3c(c2)OCO3)CC1` (stereo not given), which AC50 [1] is on record?
The AC50 was 22.4 µM [falling, partial curve, poor fit].

Which AC50 [1] does the source give for `CCOC(=O)Cc1csc(NC(=O)COc2ccc(N(C)S(=O)(=O)c3cccs3)cc2)n1` here?
Its AC50 is 35.5 µM [falling, single point].

With `COc1ccccc1N1CCN(C(=O)CSc2ccccc2)CC1` as the compound, how does the AC50 [1] read?
The AC50 was 3.26 µM [rising, full curve].

For `CSc1ccc(-c2sc(Nc3cccc4ccccc34)n[n+]2-c2ccccc2)cc1`, which AC50 [1] is on record?
Its AC50 is 1.58 µM [rising, partial curve, poor fit].

For `COc1ccc(OC)c(-c2nnc3n2N=C(c2ccc(OC(F)F)c(OCC4CC4)c2)CS3)c1`, which AC50 [1] is on record?
The AC50 was 4.11 µM [falling, single point].

What about the AC50 [2] of the same compound?
The AC50 was 18.4 µM [falling, single point].

For `COc1ccc(NS(=O)(=O)c2cccc(NC(=O)c3ccc(Cl)nc3)c2)cc1`, which AC50 [1] is on record?
The AC50 was 8.91 µM [falling, partial curve, poor fit].

Which AC50 [1] does the source give for `COc1cc(C(C)=O)ccc1OCCCOc1cccc2cccnc12` here?
The AC50 was 11.2 µM [rising, partial curve].

Which AC50 [1] does the source give for `CCOc1ccc(C(=O)OCC(=O)N2CCCC2)cc1` here?
Its AC50 is 6.31 µM [falling, single point].

With `CCN(CC)S(=O)(=O)c1ccc(N2CCCC2)c(NC(=O)c2nn(C)c(=O)c3ccccc23)c1` as the compound, how does the AC50 [1] read?
Its AC50 is 0.461 µM [rising, single point].

For `C#CC(C)(CC)NC(=O)Cn1nnc(-c2cccc(C(F)(F)F)c2)n1` (stereo not given), which AC50 [1] is on record?
Its AC50 is 12.6 µM [rising, single point].

For `COc1ccc(-c2cn[nH]c2-c2ccc(OCc3ccccc3)cc2O)cc1OC`, which AC50 [1] is on record?
Its AC50 is 15.8 µM [falling, single point].

For `CCOc1ccccc1NC=C1C(=O)OC2(CCCCC2)OC1=O`, which AC50 [1] is on record?
The AC50 was 4.61 µM [falling, single point].

Which AC50 [1] does the source give for `N#Cc1c(C(F)(F)F)cc(-c2cccc(Cl)c2)[nH]c1=O` here?
Its AC50 is 20.6 µM [falling, single point].

For `BrC(=C\c1ccccc1)/C=N/Nc1nc2ccccc2[nH]1`, which AC50 [1] is on record?
The AC50 was 32.6 µM [falling, partial curve, poor fit].

Which results are given for `CC(=O)Oc1ccc(N(C(C)=O)S(=O)(=O)c2ccc(Cl)cc2)c2ccccc12`?
AC50 [1]: 15.8 µM [falling, single point]; AC50 [2]: 12.6 µM [falling, partial curve, poor fit]

For `O=C(COC(=O)/C=C/c1ccccc1Cl)NC(=O)NCc1ccccc1`, which AC50 [1] is on record?
Its AC50 is 2.59 µM [rising, full curve, poor fit].

Which AC50 [1] does the source give for `OC(CN1CCOCC1)C12CC3CC(CC(C3)C1)C2` (stereo not given) here?
Its AC50 is 29.1 µM [falling, single point].

Which AC50 [1] does the source give for `O=C(N/N=C/c1ccco1)c1cccc(N2Cc3ccccc3C2)c1` here?
The AC50 was 7.08 µM [falling, full curve].

With `Cc1cc(C)cc(OCC(=O)N(C)CC(=O)Nc2ccc(N3CCOCC3)cc2)c1` as the compound, how does the AC50 [1] read?
Its AC50 is 29.1 µM [rising, single point].

Which AC50 [1] does the source give for `O=C(O)c1ccc(N/N=C/c2cc3cc4c(cc3nc2Cl)OCCO4)cc1` here?
The AC50 was 1.58 µM [falling, full curve].

With `COc1ccc(NC(=O)/C(N=Nc2cc(S(=O)(=O)Nc3ccc(OC)cc3)ccc2OC)=C(\C)O)cc1` as the compound, how does the AC50 [1] read?
Its AC50 is 12.6 µM [rising, partial curve, poor fit].

With `Cc1cccc(Cn2c(C(=O)OC(C)C)cc3c2ccn3C)c1` as the compound, how does the AC50 [1] read?
Its AC50 is 8.2 µM [rising, partial curve].

Which AC50 [1] does the source give for `NC(=O)CSc1nnc(NC(=O)c2ccc(Br)o2)s1` here?
The AC50 was 35.5 µM [falling, single point].

Which AC50 [1] does the source give for `COc1ccc(N2CCN(c3nc(NC(C)(C)C)nc(N4CCCCC4)n3)CC2)cc1` here?
Its AC50 is 20.6 µM [rising, partial curve, poor fit].

For `CCNC(=S)Nc1cccc(S(=O)(=O)NC2=NCCC2)c1`, which AC50 [1] is on record?
The AC50 was 35.5 µM [rising, single point].

Which AC50 [1] does the source give for `O=C(CSc1nnc2c(n1)[nH]c1ccccc12)Nc1ccc2c(c1)OCO2` here?
Its AC50 is 0.206 µM [falling, full curve, poor fit].

With `C/C(=N/NC(=O)CNC(=O)/C=C/c1ccccc1)c1ccco1` as the compound, how does the AC50 [1] read?
Its AC50 is 5.01 µM [rising, single point].

Which AC50 [1] does the source give for `O=c1c(-c2nc3ccccc3s2)cccn1Cc1ccc(Cl)cc1` here?
The AC50 was 2.51 µM [falling, single point].

Which AC50 [1] does the source give for `CCC(C)Nc1nc(OC)nc(N(C)C#N)n1` (stereo not given) here?
The AC50 was 6.31 µM [falling, single point].

Which AC50 [1] does the source give for `COc1ccc(C2/C(=C(/O)c3ccccc3)C(=O)C(=O)N2c2ncccn2)cc1OC` (stereo not given) here?
The AC50 was 14.6 µM [rising, partial curve, poor fit].

With `COc1cc2c(c(OC)c1OC)-c1ccc(N(C)CC(OC)OC)c(=O)cc1[C@@H](NC(C)=O)CC2` as the compound, how does the AC50 [1] read?
The AC50 was 7.08 µM [rising, partial curve].

And the AC50 [2]?
The AC50 was 6.31 µM [falling, partial curve].

With `CCCCN(CCCC)C(=O)C1CC=CCC1C(=O)O` (stereo not given) as the compound, how does the AC50 [1] read?
Its AC50 is 0.708 µM [falling, full curve, poor fit].

With `O=C(CSc1nnc(CNc2ccc(F)cc2)o1)N1c2ccccc2Sc2ccccc21` as the compound, how does the AC50 [1] read?
Its AC50 is 3.16 µM [falling, single point].

Which AC50 [1] does the source give for `CCOc1ccc(N=C(NC#N)SCC)cc1` here?
Its AC50 is 18.4 µM [rising, single point].

For `Cc1sc2ncn(CC(=O)NCC3COc4ccccc4O3)c(=O)c2c1S(=O)(=O)N1CCOCC1` (stereo not given), which AC50 [1] is on record?
Its AC50 is 0.282 µM [rising, full curve, poor fit].

Which AC50 [1] does the source give for `O=C(O)C1CC(=O)N(c2ccc(OCc3ccccc3)cc2)C1` (stereo not given) here?
Its AC50 is 13 µM [falling, partial curve, poor fit].

With `COc1ccc(Cc2nc3ccc(C(=O)NCCc4ccncc4)cc3o2)cc1OC` as the compound, how does the AC50 [1] read?
Its AC50 is 4.47 µM [rising, partial curve, poor fit].

For `Cc1cccc(C)c1OCCCCCNCCO`, which AC50 [1] is on record?
The AC50 was 32.6 µM [falling, partial curve, poor fit].

For `Cc1ccc(C(=O)OCC(=O)Nc2ccccc2C(F)(F)F)cc1S(=O)(=O)N1CCCCC1`, which AC50 [1] is on record?
Its AC50 is 20.6 µM [rising, single point].

Which AC50 [1] does the source give for `CCOC(CCNC(=O)c1cn(CC(C)C)c(=O)c2c1c1ccccc1n2C)OCC` here?
Its AC50 is 3.55 µM [rising, full curve, poor fit].

Which AC50 [1] does the source give for `O=C(Nc1ccccc1N1CCCC1)c1ccc(Cl)c(S(=O)(=O)N2CCOCC2)c1` here?
Its AC50 is 6.51 µM [rising, single point].

Which AC50 [1] does the source give for `Cc1cc(C)cc(Nc2ncnc3nc[nH]c23)c1` here?
Its AC50 is 11.2 µM [falling, partial curve, poor fit].

With `C(=N\N1CCOCC1)/c1cccs1` as the compound, how does the AC50 [1] read?
The AC50 was 29.1 µM [rising, single point].

With `Cc1cc(C)c(NC(=O)COC(=O)c2cccc3c2C(=O)c2ccccc2C3=O)c(C)c1` as the compound, how does the AC50 [2] read?
The AC50 was 2.31 µM [falling, partial curve, poor fit].

Which AC50 [1] does the source give for `CC(=O)Nc1ccc(NC(=O)Cc2ccc(-c3ccccc3)cc2)cc1` here?
Its AC50 is 20 µM [falling, single point].

With `CCC(=O)N1CCN(c2nc(CC)nc3sc4c(c23)CCCC4)CC1` as the compound, how does the AC50 [1] read?
Its AC50 is 8.91 µM [falling, partial curve].

Which AC50 [1] does the source give for `CCOC(=O)C1(CC2CC2)CCN(S(=O)(=O)C[C@]23CC[C@H](CC2=O)C3(C)C)CC1` here?
Its AC50 is 35.5 µM [rising, partial curve, poor fit].

For `O=C(NC1(O)C(=O)c2ccccc2C1=O)c1c(Cl)cccc1Cl`, which AC50 [1] is on record?
Its AC50 is 11.2 µM [rising, partial curve, poor fit].

For `COCCN(CC(=O)Nc1ccccc1C(F)(F)F)C(=O)c1ccc(-n2cccn2)cc1`, which AC50 [1] is on record?
The AC50 was 16.4 µM [rising, partial curve, poor fit].

For `CC1CCCN(C(=O)COC(=O)c2n[nH]c3ccccc23)C1` (stereo not given), which AC50 [1] is on record?
The AC50 was 20 µM [falling, single point].

Which AC50 [1] does the source give for `Cc1nnc(NC(=O)c2ccc(S(=O)(=O)C(F)F)cc2)s1` here?
The AC50 was 3.16 µM [rising, partial curve, poor fit].

For `CC1CN(CCCCOc2ccc3ccccc3c2)CC(C)O1` (stereo not given), which AC50 [1] is on record?
Its AC50 is 11.6 µM [rising, partial curve, poor fit].

Which AC50 [1] does the source give for `Cc1cc(C(=O)CSc2nnc(N)s2)c(C)n1Cc1cccs1` here?
Its AC50 is 0.164 µM [rising, full curve, poor fit].

With `COC(=O)c1ccc(NC(=O)c2ccccc2CC[N+](=O)[O-])cc1` as the compound, how does the AC50 [1] read?
The AC50 was 3.55 µM [falling, full curve].

Which AC50 [1] does the source give for `COC(=O)COc1ccc(=O)n(-c2ccccc2)n1` here?
Its AC50 is 0.731 µM [rising, full curve, poor fit].

With `CCOC(=O)C1(N(CC)CC)Sc2cc(C)ccc2NC1=O` (stereo not given) as the compound, how does the AC50 [1] read?
The AC50 was 22.4 µM [falling, partial curve, poor fit].

Which AC50 [1] does the source give for `C[C@H](CO)N1C[C@H](C)[C@@H](CN(C)S(=O)(=O)c2ccc(F)cc2)Oc2ccc(NC(=O)C3CC3)cc2C1=O` here?
Its AC50 is 18.4 µM [rising, single point].

Which AC50 [1] does the source give for `O=C(Nc1cccc(S(=O)(=O)N2CCCCC2)c1)c1ccccc1NS(=O)(=O)c1ccc(F)cc1` here?
Its AC50 is 2.31 µM [falling, full curve].

For `CCCCC(=O)Nc1nc(C)c(-c2csc(Nc3ccc(Cl)cc3)n2)s1`, which AC50 [1] is on record?
Its AC50 is 0.708 µM [rising, partial curve].

With `O=C(NN=C1CCCCCCCCCCC1)c1ccncc1` as the compound, how does the AC50 [1] read?
The AC50 was 35.5 µM [falling, single point].
